{"source": "PubChem BioAssay AID1347075", "about": "(National Center for Advancing Translational Sciences (NCATS), 2019)", "note": "Out of some 400,000 compounds screened, about 5,500 (1.4%) were called active. Inconclusive means that the source gave no clear call. Such entries were picked first, then a sample of the others. The call rests on the fitted dose curve; in most records, active means well fitted cell-killing curve with a large enough effect; inconclusive means small, poorly fitted or top-dose-only effect, or effect the other way; inactive means flat fitted curve, though single readings scatter. Potencies beside an inconclusive call are fits to weak or partial responses and may not hold up. Potency means the concentration at half of the fitted maximal effect.", "data": [{"experiment": "qHTS assay for MDR1-selective chemotherapeutics: Primary screen using the parental adenocarcinoma cell KB-3-1; further: nearly all actives have a fitted effect of over 60% in size", "settings": "KB-3-1 viability, CellTiter-Glo ATP luminescence, 72 h; series mostly up to 46.1 µM", "summary_of_the_method": "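Viability of parental KB-3-1 cells, measured by CellTiter-Glo luminescence, followed a 72 h incubation at 37 °C with pinned compounds in phenol-red-free DMEM containing 10% FBS.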", "values": [{"smiles": "Cc1cc(Nc2cc(Cl)nc(Sc3ccc(NC(=O)C4CC4)cc3)n2)n[nH]1", "Potency": "active: 1.64 µM"}, {"smiles": "COc1ccc(-c2nnc(-c3cccnc3)o2)cc1OC", "Potency": "inconclusive: 9.2 µM [rising, partial curve, poor fit]"}, {"smiles": "COc1ccc(C(=O)N/N=C/c2cccc3cccnc23)cc1", "Potency": "inconclusive: 16.4 µM [cytotoxic, partial curve]"}, {"smiles": "Cc1ccc(C)c(NC(=S)NCCN(C2CCCCC2)C2CCCC2)c1", "Potency": "inconclusive: 29.1 µM [cytotoxic, single point]"}, {"smiles": "CC(=O)Nc1ccc(NS(=O)(=O)c2ccc3[nH]c(=O)[nH]c3c2)cc1", "Potency": "inconclusive: 0.206 µM [rising, full curve]"}, {"smiles": "COc1ccc(OCCC(=O)OCC(=O)Nc2cccc(S(=O)(=O)N3CCCCC3)c2)cc1", "Potency": "inactive"}, {"smiles": "Cc1[nH]c2ccccc2c1C(c1ccccn1)N1CCC(C(N)=O)CC1", "note": "(stereo not drawn)", "Potency": "inconclusive: 29.1 µM [cytotoxic, single point]"}, {"smiles": "Cc1nn(-c2ccccc2)c(Cl)c1CN(C(=O)CCl)c1ccc(Cl)cc1", "Potency": "inconclusive: 20.6 µM [cytotoxic, single point]"}, {"smiles": "CCC(CC)C(=O)OCC(=O)Nc1ccc(S(=O)(=O)N2CCOCC2)cc1OC", "Potency": "inconclusive: 29.1 µM [rising, single point]"}, {"smiles": "O=C(NNC(=O)c1cccc(Cl)c1)NNC(=O)c1cccc(Cl)c1", "Potency": "inactive"}, {"smiles": "O=C(O)Cc1ccc(NC(=O)c2ccc3c(c2)C(=O)N(Cc2ccco2)C3=O)cc1", "Potency": "inactive"}, {"smiles": "CC(=O)Nc1cc2c(cc1[N+](=O)[O-])-c1ccccc1C2=NO", "Potency": "inconclusive: 29.1 µM [cytotoxic, single point]"}, {"smiles": "O=C(OC/C=C/CSc1nnc(-c2cccc3ccccc23)o1)c1ccc(F)cc1", "Potency": "inactive"}, {"smiles": "Cc1ccc(C(=O)NCCn2c(C)cc3ccccc32)cc1C", "Potency": "inconclusive: 29.1 µM [cytotoxic, single point]"}, {"smiles": "COc1ccc(C(=O)Nn2c(SCC(=O)c3ccc(Cl)cc3)nc3ccccc3c2=O)cc1", "Potency": "inactive"}, {"smiles": "Cc1ccccc1-n1nnnc1SCC(=O)NC1CC1", "Potency": "inconclusive: 29.1 µM [rising, single point]"}, {"smiles": "Cc1ccc(/C=N/NC(=O)c2nnn(-c3nonc3N)c2-c2cccs2)cc1", "Potency": "inconclusive: 29.1 µM [cytotoxic, partial curve, poor fit]"}, {"smiles": "N=c1c(C(=O)NCc2ccccc2)cc2c(=O)n3ccccc3nc2n1CCCN1CCOCC1", "Potency": "inconclusive: 25.9 µM [cytotoxic, single point]"}, {"smiles": "COc1ccc(C(=O)N2CCN(Cc3ccc4c(c3)OCO4)CC2)cc1[N+](=O)[O-]", "Potency": "inconclusive: 4.11 µM [cytotoxic, full curve]"}, {"smiles": "COc1cccc(C(=O)NCCSc2c(-c3ccc(F)cc3)[nH]c3ccccc23)c1OC", "Potency": "inconclusive: 18.4 µM [cytotoxic, partial curve, poor fit]"}, {"smiles": "FC(F)(F)c1cccc(NC(=S)Nc2ccc(Cl)c(Cl)c2)c1", "Potency": "inconclusive: 0.092 µM [cytotoxic, single point]"}, {"smiles": "Brc1cc(Br)c2ncnc(N3CCCCC3)c2c1", "Potency": "active: 8.2 µM"}, {"smiles": "Cc1cc(N2CCN(c3ccc([N+](=O)[O-])c4cccnc34)CC2)c2ccccc2n1", "Potency": "active: 16.4 µM"}, {"smiles": "C/C(=N\\NC(=O)C(c1ccccc1)c1ccccc1)c1ccccn1", "Potency": "active: 13 µM"}, {"smiles": "CCOC(=O)CCn1cc(F)c(=O)[nH]c1=O", "Potency": "inactive"}, {"smiles": "CC1CCN(c2nc3ccc(C(=O)N4CCN(Cc5ccccc5)CC4)cc3s2)CC1", "Potency": "inconclusive: 29.1 µM [cytotoxic, single point]"}, {"smiles": "COc1ccc(-c2cc(C)no2)cc1S(=O)(=O)N1CCCN(Cc2ccccc2Cl)C1", "Potency": "inconclusive: 32.6 µM [cytotoxic, single point]"}, {"smiles": "Cc1ccc(S(=O)(=O)N2CCCc3cc(NS(=O)(=O)c4ccc(F)c(C)c4)ccc32)cc1", "Potency": "inconclusive: 29.1 µM [cytotoxic, single point]"}, {"smiles": "COc1ccc(N2CCN(C(=O)CCCCCn3c(=O)[nH]c4ccsc4c3=O)CC2)cc1", "Potency": "inactive"}, {"smiles": "CCOC(=O)c1c(NC(=O)CS(=O)(=O)c2ccc(C)cc2)sc2c1CCCCC2", "Potency": "inactive"}, {"smiles": "CC(=O)Oc1cc(C(=O)OCC(=O)NC23CC4CC(CC(C4)C2)C3)cc(OC(C)=O)c1OC(C)=O", "Potency": "inconclusive: 29.1 µM [cytotoxic, single point]"}, {"smiles": "COc1ccc(NS(=O)(=O)c2cc(C(=O)N3CCN(C/C=C/c4ccccc4)CC3)ccc2C)cc1", "Potency": "active: 18.4 µM"}, {"smiles": "O=C1C=C(NCc2ccco2)CC(c2ccc(Cl)cc2)C1", "note": "(stereo not drawn)", "Potency": "inconclusive: 29.1 µM [cytotoxic, single point]"}, {"smiles": "Cc1onc(-c2ccccc2)c1C(=O)N/N=C/c1cc(Br)c(Br)o1", "Potency": "inconclusive: 29.1 µM [cytotoxic, single point]"}, {"smiles": "COc1ccc(-c2c3c(nc4sc5c(Cl)nc(C)nc5c24)CCC3)cc1", "Potency": "active: 7.31 µM"}, {"smiles": "O=C(c1ccco1)N1N=C(c2ccco2)CC1c1ccc(Cl)cc1Cl", "note": "(stereo not drawn)", "Potency": "inconclusive: 29.1 µM [cytotoxic, single point]"}, {"smiles": "Cc1onc(-c2ccc(Cl)cc2Cl)c1-c1csc(N/N=C/c2ccccc2)n1", "Potency": "inconclusive: 14.6 µM [cytotoxic, single point]"}, {"smiles": "CC(C)(C)c1cc(CCC(=O)N2CCNCC2)c(C(C)(C)C)cc1O", "Potency": "inconclusive: 18.4 µM [cytotoxic, single point]"}, {"smiles": "CC1c2[nH]c3ccccc3c2CCN1C(=O)Nc1ccccc1", "note": "(stereo not drawn)", "Potency": "inconclusive: 23.1 µM [cytotoxic, single point]"}, {"smiles": "COc1ccc(OC)c(Nc2cc(C)nc3nc(C)nn23)c1", "Potency": "active: 7.31 µM"}, {"smiles": "CCc1ccc(CNC(=O)c2ccc3c(c2)N=C(C)c2cc(C)ccc2S3)cc1", "Potency": "inconclusive: 20.6 µM [cytotoxic, single point]"}, {"smiles": "Cc1cccc(C)c1NC(=O)CSc1nc(C)c(CC(=O)c2ccc(Br)cc2)c(C)c1C#N", "Potency": "inconclusive: 16.4 µM [cytotoxic, single point]"}, {"smiles": "CCN(CC)C(=O)CSc1nnc(-c2cc3ccccc3cc2O)n1CC", "Potency": "active: 3.26 µM"}, {"smiles": "COc1cc(NC(=O)c2c(-c3ccccc3Cl)noc2C)c2ncccc2c1", "Potency": "inactive"}, {"smiles": "O=C(/C=C/c1ccc(Cl)c([N+](=O)[O-])c1)Nc1ccc(N2CCCC2)c(Cl)c1", "Potency": "inactive"}, {"smiles": "CC(C)C(NC(=O)c1ccco1)C(=O)OCC(=O)Nc1ccc(C(N)=O)cc1", "note": "(stereo not drawn)", "Potency": "inactive"}, {"smiles": "CCN1C(=O)/C(=C/c2ccc(C)s2)SC1=Nc1ccc(OC)cc1", "Potency": "inconclusive: 25.9 µM [cytotoxic, single point]"}, {"smiles": "O=C(O)/C=C/C(=O)N1N=C(c2ccco2)CC1c1ccco1", "note": "(stereo not drawn)", "Potency": "inactive"}, {"smiles": "Cn1c(SCC(=O)Nc2ccc(Br)cn2)nnc1C1CC1", "Potency": "inconclusive: 6.51 µM [rising, full curve]"}, {"smiles": "NS(=O)(=O)c1ccc(CNC(=S)NC2CC2)cc1", "Potency": "inactive"}, {"smiles": "CCOc1cc(NC(=O)c2ccco2)c(OCC)cc1NC(=O)COc1ccccc1C", "Potency": "active: 14.6 µM"}, {"smiles": "Cc1ccccc1N/C(SCc1ccc(Cl)cc1)=C(/C#N)C(=O)NCc1ccco1", "Potency": "inconclusive: 20.6 µM [cytotoxic, single point]"}, {"smiles": "Cc1ccc(S(=O)(=O)Nc2ccc(Nc3nccn4c(-c5cccc(OC(F)(F)F)c5)cnc34)cc2)cc1", "Potency": "inconclusive: 29.1 µM [cytotoxic, single point]"}, {"smiles": "C[C@@H]1CN([C@@H](C)CO)S(=O)(=O)c2ccc(Br)cc2O[C@H]1CN(C)Cc1ccc(-c2ccccc2)cc1", "Potency": "inconclusive: 23.1 µM [cytotoxic, partial curve, poor fit]"}, {"smiles": "Nc1[nH]c(C(=O)c2ccccc2)c(-c2ccc(F)cc2)c1C(=O)NCCc1c[nH]c2ccccc12", "Potency": "inconclusive: 29.1 µM [cytotoxic, single point]"}, {"smiles": "Cc1cc(C)n(CC(O)CN2c3ccccc3Sc3ccccc32)n1", "note": "(stereo not drawn)", "Potency": "inconclusive: 23.1 µM [cytotoxic, single point]"}, {"smiles": "CC1=NOC(=O)/C1=C\\c1ccc(-c2ccccc2Br)o1", "Potency": "inconclusive: 29.1 µM [cytotoxic, single point]"}, {"smiles": "CCOC(=O)c1ccc(NC(=O)CCc2nc(-c3ccccc3Cl)no2)cc1", "Potency": "inconclusive: 29.1 µM [cytotoxic, single point]"}, {"smiles": "COc1ccc(C(O)c2ncc(-c3cccc(C(F)(F)F)c3)[nH]2)cc1", "note": "(stereo not drawn)", "Potency": "inactive"}, {"smiles": "CC1CCN(S(=O)(=O)c2cc3c4c(c2)CC(=O)N4CCC3)CC1", "Potency": "inactive"}, {"smiles": "C=CCn1c(NS(=O)(=O)c2ccccc2)c(S(=O)(=O)c2ccc(C)cc2)c2nc3ccccc3nc21", "Potency": "inconclusive: 29.1 µM [cytotoxic, single point]"}, {"smiles": "N#CNC(=Nc1ccc(F)cc1)SCc1ccccc1", "Potency": "inactive"}, {"smiles": "Cc1ccc(-c2c(C)n3c4c(=O)n(C)c(=O)n(C)c4nc3n2-c2cccc(O)c2)cc1", "Potency": "inconclusive: 29.1 µM [cytotoxic, single point]"}, {"smiles": "Cc1onc(-c2c(F)cccc2Cl)c1C(=O)N1CCCc2ccccc21", "Potency": "inconclusive: 29.1 µM [cytotoxic, single point]"}, {"smiles": "CC(C)[C@H](NC(=O)c1ccccc1)C(=O)OCC(=O)N1CCc2ccccc2C1", "Potency": "inactive"}, {"smiles": "CC(C)c1ccc(NC(=O)CSc2n[nH]c(=O)n2Cc2ccco2)cc1", "Potency": "inconclusive: 29.1 µM [cytotoxic, single point]"}, {"smiles": "Cn1c(=O)cc(OCC(=O)NCCCN2CCN(c3cccc(Cl)c3)CC2)c2ccccc21", "Potency": "inactive"}, {"smiles": "Cc1ccc(-c2csc(N3CCN(CCCn4c(C(F)(F)F)nc5ccccc54)CC3)n2)cc1", "Potency": "inconclusive: 29.1 µM [cytotoxic, single point]"}]}]}
